Experimental data taken from paper PMC11109948.
Results are given in words; binding and its absence hold for the method and conditions named. In cells and extracts the contact can be indirect. These calls come from enrichment with a bait or labelling near it, and not all partners need be listed.

The chains behind the UniProt entries cited, without tags or fusion partners.
UniProt Q960X4: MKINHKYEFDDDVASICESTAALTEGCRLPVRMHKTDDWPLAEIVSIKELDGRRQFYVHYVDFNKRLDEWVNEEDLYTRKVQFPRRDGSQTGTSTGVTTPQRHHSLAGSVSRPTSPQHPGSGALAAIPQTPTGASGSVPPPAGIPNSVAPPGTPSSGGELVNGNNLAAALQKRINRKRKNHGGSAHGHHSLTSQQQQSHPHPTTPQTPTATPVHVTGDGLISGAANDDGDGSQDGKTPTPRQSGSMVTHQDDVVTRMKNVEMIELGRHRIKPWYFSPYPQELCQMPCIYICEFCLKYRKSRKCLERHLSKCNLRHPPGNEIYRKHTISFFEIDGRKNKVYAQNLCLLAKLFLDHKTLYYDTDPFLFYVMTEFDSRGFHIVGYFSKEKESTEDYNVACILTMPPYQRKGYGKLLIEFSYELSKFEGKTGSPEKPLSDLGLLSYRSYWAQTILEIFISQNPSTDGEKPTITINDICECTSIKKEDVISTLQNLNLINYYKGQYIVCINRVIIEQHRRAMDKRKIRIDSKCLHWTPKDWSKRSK

Molecular target: dTip60 (KAT5) with N-terminal TwinStrep tag (Drosophila melanogaster) (UniProt Q960X4)
Assay: affinity purification with mass spectrometry; three subunits co-expressed in Sf21; lysate (300 mM KCl, RNase A, benzonase) loaded on StrepTrap Streptactin column, washed with 300 mM KCl, eluted with biotin; subunits verified by mass spectrometry

B1: Ing3 (protein, UniProt Q9VWS0 1-686)
chain: MLYLEDYLEMIEHLPQELRDRFTEMRELDLAVQNNMDSLDKKAHMFFKQCKRDELQHESMDTEFHSLRGEYFKVMEDADEKVAIATQIHELVERYLRRLDSELFKFKCELEADNNGITEILERRSLELDGNSTAATALLLSMNQKENRYYGASSANTMVNSSTGHATGAATGSSGIALVSGAAGTGGALSSISTAQLGSSQRHRKLEKRRETICTVPVQEKRANLNHSLPVVGSGSTTAAAASSSSATTAAAAASLASATTAQTHVSNHIGSIAATHLTLPVAMGVAGGSSSLASSSLATGTGSLVRQLPTNLTHTVLSTSGGATAAAAAGGNSTSVVAAGTAHGHAHVSGHSAAGATVTYNLQQLGGGAAASSAIAAAASQAIVATQQMQQGRRTASLKASYEAIHGTAGTTTDFWTQAGQGGLQQSTAGSVTVAAGTALATGAAGGSSTGSHHSHHSQSHHGGHGHGHGHGHGHGHGHGHHSSSGHGGGHSSHHQEKKQKKKLTTALTLPTVQPTAGSSSGNSIGSSSSISLESVNKLTTSAALAAASATTTYMSVGGQALLAMTPGGGGGGNLAESSAEGVPAGMIAMNLPTTTVTPGSSLTIGENGLVVEQTNEGEWSYDPNEPRYCTCNQVSYGDMVACDNDACPYEWFHYPCVGITQPPKGKWYCPKCTASMRRRGNRKN
- binding: binds
